Results are given in words; binding and its absence hold for the method and conditions named. In cells and extracts the contact can be indirect. For some assays here: Binding calls can cover weak binding; strength is not graded here. Sequences can lack the tags named with a protein.
What was measured:
[1] = biological target: ROS1CTD fused with split luciferase (Arabidopsis thaliana); experiment: split reporter; split luciferase in Nicotiana benthamiana (tobacco) leaves, 3 day-post-infiltration; empty vectors as negative control; CCD camera
[2] = biological target: ROS1NTD fused with split luciferase (Arabidopsis thaliana); experiment: as above

B1: MET18 fused with split luciferase (protein, UniProt Q0WVF8 1-1134)
chain: MMVEPNQLVQHLETFVDTNRSSSQQDDSLKAIASSLENDSLSITQLVREMEMYLTTTDNLVRARGILLLAEILDCLKAKPLNDTIVHTLVGFFSEKLADWRAMCGALVGCLALLKRKDVAGVVTDIDVQAMAKSMIQNVQVQALALHERKLAFELLECLLQQHSEAILTMGDLLVYAMCEAIDGEKDPQCLMIVFHLVELLAPLFPSPSGPLASDASDLFEVIGCYFPLHFTHTKDDEANIRREDLSRGLLLAISSTPFFEPYAIPLLLEKLSSSLPVAKVDSLKCLKDCALKYGVDRMKKHYGALWSALKDTFYSSTGTHLSFAIESLTSPGFEMNEIHRDAVSLLQRLVKQDISFLGFVVDDTRINTVFDTIYRYPQYKEMPDPSKLEVLVISQILSVSAKASVQSCNIIFEAIFFRLMNTLGIVEKTSTGDVVQNGNSTVSTRLYHGGLHLCIELLAASKDLILGFEECSPTSGCANSGCSMVKSFSVPLIQVFTSAVCRSNDDSVVDVYLGVKGLLTMGMFRGGSSPVSRTEFENILVTLTSIITAKSGKTVVWELALKALVCIGSFIDRYHESDKAMSYMSIVVDNLVSLACSSHCGLPYQMILEATSEVCSTGPKYVEKMVQGLEEAFCSSLSDFYVNGNFESIDNCSQLLKCLTNKLLPRVAEIDGLEQLLVHFAISMWKQIEFCGVFSCDFNGREFVEAAMTTMRQVVGIALVDSQNSIIQKAYSVVSSCTLPAMESIPLTFVALEGLQRDLSSRDELILSLFASVIIAASPSASIPDAKSLIHLLLVTLLKGYIPAAQALGSMVNKLGSGSGGTNTSRDCSLEEACAIIFHADFASGKKISSNGSAKIIVGSETTMSKICLGYCGSLDLQTRAITGLAWIGKGLLMRGNERVNEIALVLVECLKSNNCSGHALHPSAMKHAADAFSIIMSDSEVCLNRKFHAVIRPLYKQRCFSTIVPILESLIMNSQTSLSRTMLHVALAHVISNVPVTVILDNTKKLQPLILEGLSVLSLDSVEKETLFSLLLVLSGTLTDTKGQQSASDNAHIIIECLIKLTSYPHLMVVRETSIQCLVALLELPHRRIYPFRREVLQAIEKSLDDPKRKVREEAIRCRQAWASITSGSNIF
binding [1]: binds | binding [2]: no binding

From PMC4619598
